Some entries share one result that the patent states for a list of compounds.
Test system: WNV virus, Kunjin strain (KUNV)
Assay: Antiviral activity against the WNV virus Kunjin strain in HeLa cells (nanoluciferase reporter)
Assay type: cell-based
Conditions: MOI=0.1, 24 h

Cc1ccc(C(=O)Nc2cccc(-c3c[nH]c4ncc(-c5ccccc5)cc34)c2)c(=O)n1-c1ccc(F)cc1 [Compound 4, 1-(4-fluorophenyl)-6-methyl-2-oxo-1,2-dihydro-pyridine-3-carboxylic acid [3-(5-phenyl-1H-pyrrolo[2,3-b]pyridin-3-yl)-phenyl]-amide]
concentration that prevents infection of Hela cells with WNV strain Kunjin: greater than or equal to 500 nM

Cc1ccc(C(=O)Nc2ccc(F)c(-c3c[nH]c4ncc(-c5ccccc5)cc34)c2)c(=O)n1-c1ccc(F)cc1 [Compound 15, 1-(4-fluorophenyl)-6-methyl-2-oxo-1,2-dihydro-pyridine-3-carboxylic acid [4-fluoro-3-(5-phenyl-1H-pyrrolo[2,3-b]pyridin-3-yl)-phenyl]-amide]
concentration that prevents infection of Hela cells with WNV strain Kunjin: greater than or equal to 500 nM

From US20240239795A1, “NOVEL AZAINDOLE DERIVATIVES AS ANTIVIRAL AGENTS” (Centre National de la Recherche Scientifique, priority 2021, published 2024)
